Reference: patent US11419868B2, “Low dose product and method for treating diarrhea” (MAREGADE RX, LLC, priority 2016, dated 2022)

Test system: stress-induced visceral hypersensitivity
Assay: Chronic water avoidance stress (WAS) model, visceromotor response to colorectal distension
Conditions: oral, twice daily, alone or in combination

SMILES | effect on fecal output during water avoidance stress
O=C(O)COCCN1CCN(C(c2ccccc2)c2ccc(Cl)cc2)CC1 (centres unmarked) [cetirizine] | had no effects on fecal output
NC(N)=Nc1nc(CSCCC(N)=NS(N)(=O)=O)cs1 [famotidine] | had no effects on fecal output
